Read-outs that look alike come from different tables or passages of the source. No constants are given. Whether binding was seen depends on the method and setting. Binding seen in cells or lysates may run through a third protein. These calls come from enrichment with a bait or labelling near it, and not all partners need be listed. Tags and fused reporters may be left off the sequences shown.

The text below walks through data of publication doi:10.1101/202598.

What all share (assay): affinity purification with mass spectrometry
The target in assay [1] is T1, Strep-tagged Mtb Rv2074 (Mycobacterium tuberculosis (Erdman strain)) (UniProt P9WLL7).
T1 sequence: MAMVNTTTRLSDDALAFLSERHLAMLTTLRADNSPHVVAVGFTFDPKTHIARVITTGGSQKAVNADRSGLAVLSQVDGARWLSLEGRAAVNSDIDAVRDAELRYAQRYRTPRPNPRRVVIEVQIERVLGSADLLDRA

Assay [2] addresses T1, Strep-tagged Mtb Rv2074 (Mycobacterium tuberculosis (Erdman strain)). This is another data set of the same source.
In assay [3] the target is T2, LpqN-Strep (expressed in 293T cells) (Mycobacterium tuberculosis (Erdman strain)) (UniProt O53780).
T2 sequence: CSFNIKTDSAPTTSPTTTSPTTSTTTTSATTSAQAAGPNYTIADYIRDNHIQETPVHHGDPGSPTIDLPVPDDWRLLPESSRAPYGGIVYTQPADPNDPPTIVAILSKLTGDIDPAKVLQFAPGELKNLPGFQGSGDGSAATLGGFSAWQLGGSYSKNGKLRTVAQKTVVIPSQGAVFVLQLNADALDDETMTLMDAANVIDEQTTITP

For the molecule “VCP (endogenous) (from UniProt P55072 1-806)”, the binding entry in assay [1] is “binds”. Same read-out and setting: in the case of “VPRBP (endogenous) (from UniProt Q9Y4B6 1-1507)” it was “binds”.

B1: ATG4B (endogenous) (protein, UniProt Q9Y4P1 1-393)
chain: MDAATLTYDTLRFAEFEDFPETSEPVWILGRKYSIFTEKDEILSDVASRLWFTYRKNFPAIGGTGPTSDTGWGCMLRCGQMIFAQALVCRHLGRDWRWTQRKRQPDSYFSVLNAFIDRKDSYYSIHQIAQMGVGEGKSIGQWYGPNTVAQVLKKLAVFDTWSSLAVHIAMDNTVVMEEIRRLCRTSVPCAGATAFPADSDRHCNGFPAGAEVTNRPSPWRPLVLLIPLRLGLTDINEAYVETLKHCFMMPQSLGVIGGKPNSAHYFIGYVGEELIYLDPHTTQPAVEPTDGCFIPDESFHCQHPPCRMSIAELDPSIAVGFFCKTEDDFNDWCQQVKKLSLLGGALPMFELVELQPSHLACPDVLNLSLDSSDVERLERFFDSEDEDFEILSL
With B1, the binding entry in assay [2] is recorded as “binds”.

B2: VPS33b (endogenous) (protein, UniProt Q9H267 1-617)
chain: MAFPHRPDAPELPDFSMLKRLARDQLIYLLEQLPGKKDLFIEADLMSPLDRIANVSILKQHEVDKLYKVENKPALSSNEQLCFLVRPRIKNMRYIASLVNADKLAGRTRKYKVIFSPQKFYACEMVLEEEGIYGDVSCDEWAFSLLPLDVDLLSMELPEFFRDYFLEGDQRWINTVAQALHLLSTLYGPFPNCYGIGRCAKMAYELWRNLEEEEDGETKGRRPEIGHIFLLDRDVDFVTALCSQVVYEGLVDDTFRIKCGSVDFGPEVTSSDKSLKVLLNAEDKVFNEIRNEHFSNVFGFLSQKARNLQAQYDRRRGMDIKQMKNFVSQELKGLKQEHRLLSLHIGACESIMKKKTKQDFQELIKTEHALLEGFNIRESTSYIEEHIDRQVSPIESLRLMCLLSITENGLIPKDYRSLKTQYLQSYGPEHLLTFSNLRRAGLLTEQAPGDTLTAVESKVSKLVTDKAAGKITDAFSSLAKRSNFRAISKKLNLIPRVDGEYDLKVPRDMAYVFGGAYVPLSCRIIEQVLERRSWQGLDEVVRLLNCSDFAFTDMTKEDKASSESLRLILVVFLGGCTFSEISALRFLGREKGYRFIFLTTAVTNSARLMEAMSEVKA
With B2, the binding result in assay [3] is on record as “binds”.
